Results of single-concentration screens

Measurements from “University of Dundee, Small-Polar-MMV Screening Library” (2021), ChEMBL document CHEMBL3988442.

T. brucei: 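Whole-parasite assay of Trypanosoma brucei over 72 hours; the read-out is not stated. Concentration: 30 µM. The record gives no direction; compounds that gave an IC50 in retests scored well above the rest, so higher reads as stronger inhibition. Values scatter widely below zero; nearly all retest evidence comes from the higher of the two concentrations used. Of about 64,000 compounds tested this way, about 940 (1.5%) reached 50% or more in at least one test.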
Leishmania in macrophages: 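Cell assay of Leishmania donovani living inside macrophages; the read-out is not stated. Compounds at 30 µM. The record gives no direction; compounds that gave an IC50 in retests scored well above the rest, so higher reads as stronger inhibition. Of about 69,000 compounds tested this way, about 1,000 (1.5%) reached 50% or more in at least one test.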

Results are given as percent effect.
The controls that fix the scale are not given in the record; negative values are as filed.
Compounds were drawn at random from those tested, without regard to their results.
Two or more numbers in one place are separate tests of the same structure; such repeats can differ widely.
A dash means the value is not listed here; it may have been measured.

compound | T. brucei | Leishmania in macrophages
O=C(NC(C1CC1)C1CC1)c1cccc[n+]1[O-] | 11.02% | 41.09%
COc1cc2ccn(CCS(C)(=O)=O)c(=O)c2cc1F | -11.07% | -1.477%
CC(=O)Nc1cccc(C(=O)Nc2cnc3n2CCCC3)c1 | 47.69% | -8.357%
CN(c1ncc(C(=O)Nc2ccccc2)c(N)n1)C1CCCCC1 | 1.024% | 7.585%
Cc1ccc(N2CCCC(N(C)Cc3nc(C)c(C)o3)C2)nn1 (stereo not drawn) | -14.32% | 32.11%
CN(C)C(C(=O)N1CCN(CCn2cccc2)CC1)c1ccc(F)cc1 (stereo not drawn) | -19.76% | 26.71%
NC1(C(=O)NCC2CCCN(Cc3ccccc3F)C2)CCCC1 (stereo not drawn) | -11% | 28.74%
COCC1c2c(cnn2C)CCN1Cc1ccc(C)cc1.O=C(O)C(F)(F)F.O=C(O)C(F)(F)F (stereo not drawn) | -19.43% | -4.195%
Cn1ccnc1CN1CCCN(C(=O)COCC2CC2)CC1 | 1.293% | 11.33%
CC(C)C1CCCN1C(=O)Nc1ccc(=O)n(C)c1 (stereo not drawn) | -8.349% | 2.864%
CC(C)(C)n1cc(C2=CCN(CCN3CCCCCC3)CC2)cn1 | -9.897% | -3.311%
Cc1nc2ccccn2c1CN1C[C@@H](CN(C)C)[C@@H](CO)C1 | 26% | 28.56%
Cc1c(CNCCCOc2cccnc2)c2ccccc2n1CC(N)=O | -109.5% | 18.34%
Cc1cc(-c2ccc(=O)n(C3CCN(S(C)(=O)=O)CC3)n2)c(C)o1 | - | 8.228%
Cc1cnn(CC(C)NCc2cc(=O)n3ccccc3n2)c1 (stereo not drawn) | -49.7% | 25.38%
Cn1ncc2c(=O)[nH]c(N3CCCC3c3cccs3)nc21 (stereo not drawn) | -47.84% | -11.75%
CC(C)(C)c1cnc(CN2CCC(NC(=O)Nc3ccccc3)CC2)o1 | -3.059% | 15.46%
CCC(NCc1ccccc1)c1ccccc1OCC(=O)NC (stereo not drawn) | 4.346% | -4.305%
O=C(O)C(F)(F)F.O=C(c1c[nH]cn1)N1CCC(F)(F)C2(CCN(c3ncccn3)C2)C1 (stereo not drawn) | -52.84% | 10.53% & -8.996%
Cc1c(C(C)NC(=O)C2CCCCC2)cnn1C (stereo not drawn) | -49.49% | -0.7373%
O=C(NCCc1nncn1C1CC1)C1SCCc2ccccc21 (stereo not drawn) | -2.49% | 11.66%
CC(C)c1ncc(S(C)(=O)=O)c(C2CCCNC2)n1 (stereo not drawn) | 42.96% | 22.61%
CCS(=O)(=O)N1CCCCC1c1nc(C)no1 (stereo not drawn) | -19.31% | 8.572%
Cc1cc(C(=O)N[C@H]2COC[C@@H]2N2CCOCC2)c2ccc(F)cc2n1 | 13.31% | -5.679%
CC(C)CN1C(=O)C2(CCCC2)NC1c1c[nH]nc1-c1cccnc1 (stereo not drawn) | -26.02% | -37.19%
CC(=O)N1CCC2(CC1)CN(CC(C)C)CC21CCNC1=O.O=C(O)C(F)(F)F (stereo not drawn) | -13.59% | 2.646%
Cn1cc(CNC2CCS(=O)(=O)C2)c(-c2cc3ccccc3o2)n1 (stereo not drawn) | -14.94% | 5.533%
CSc1cc2c(cc1NC(=O)N(C)Cc1cnn(C)c1)OCCO2 | -69.22% | -5.004%
CCc1nc(Cn2ccnc2-c2nccn2C)no1 | -7.877% | 1.386%
CCCn1cc(-c2cc(C(=O)N(C)C)c3ccc(OC)cc3n2)cn1 | -0.8471% | 24.22%
Cc1ccc(S(=O)(=O)Nc2ccc(C)c(C(=O)O)c2)s1 | -9.875% | 9.597%
CN(CCC#N)C(=O)Cc1csc(-c2ncccn2)n1 | 0.4224% | 54.73%
CCC(C)N(Cc1cccnc1)Cc1cc2c(cc1OC)OCO2 (stereo not drawn) | -12.11% | 16.2%
Cn1ccnc1CN1CCC2(CCC(=O)N2CCN2CCCC2)CC1.O=C(O)C(F)(F)F.O=C(O)C(F)(F)F | -4.116% | 12.08%
Cc1nc(-c2nnc[nH]2)sc1C(=O)N1CCCC1Cn1cccn1 (stereo not drawn) | -19.42% | 24.69%
Cc1nn(C)c2nc(N3CCN(Cc4nccn4C)CC3)sc12 | 5.206% | 15.9%
Cc1cc(C(=O)N2CCC(O)(Cn3c(C)cc4ccncc43)CC2)on1 | 2.797% | 21.8%
Cc1ccc(OCc2cccc(C(=O)N(C)CCC#N)c2)cn1 | -21.74% | 15.84%
[H][C@@]12C[C@H](C(=O)N3CCCCO3)CN(C(=O)c3ccncc3)[C@]1([H])CCO2 | 32.11% | 22.2%
Cc1cccc(OCCNC(=O)C(C)S(=O)(=O)C2CCCC2)c1 (stereo not drawn) | -26.45% | -4.84%
O=C(c1ccc2nncn2c1)N1CCCC1c1noc(C2CC2)n1 (stereo not drawn) | -20.62% | 23.44%
OCCN1CCC(F)(F)C2(CCN(c3cccnc3)C2)C1 (stereo not drawn) | -80.03% | 51.95%
O=C(O)c1ccccc1-c1ccc(Cn2c(=O)cc[nH]c2=O)cc1 | -24.57% | -31.04%
CC(C)c1nnc(CN2CCN(CC(O)c3ccccc3)CC2)o1 (stereo not drawn) | -9.75% | 24.77%
Cc1cc(-n2c(C)cn(CN(C)C3CCS(=O)(=O)C3)c2=O)no1 (stereo not drawn) | - | 16.27%
[H][C@@]12CN(Cc3nccs3)C[C@@H](C(=O)NC(C)C)[C@]1([H])CCO2 | -20.18% | 47.27%
CC(=O)Nc1nc(C(=O)NC(C)c2cccnc2)cs1 (stereo not drawn) | 24.71% | 19.88%
Cc1cs/c(=N\C(=O)c2c3c(nc4onc(C)c24)CCC3)[nH]1 | -9.589% | -10.03%
[H][C@@]12CN(C(=O)C3CCOC3)C[C@]1([H])C(=O)N(c1ccccc1)C2 (stereo partly drawn) | -3.312% | 6.072%
Cn1nccc1C1CCN(Cc2ccn(-c3ccccc3)n2)CC1 | -20.73% | -1.864%
CNC(=O)CCNC(=O)c1cccc(Cn2nc(C)cc2C)c1 | 11.31% | 5.768%
CNc1cc(C2CCCNC2)nc(C)n1.Cl.Cl (stereo not drawn) | -44.87% | -7.531%
O=C(NC1CC1)[C@H]1CN(Cc2ccccc2)C[C@@H]1C(=O)c1ccccc1 | -1.766% | -20.05%
CC(NC(=O)N1CCC1)c1ccc(S(N)(=O)=O)cc1 (stereo not drawn) | -18.55% | -0.8795%
CCN(CC)C(=O)C1CCCN(c2ncnc3oc(C)nc23)C1 (stereo not drawn) | -17.13% | 12.59%
COc1cc(C2CC(=O)c3c(O)cc(O)cc3O2)ccc1O (stereo not drawn) | -8.333% | 3.723%
COc1cccc(CN2CCC3(CC2)CCN(c2ncc(F)cn2)C3)c1.O=C(O)C(F)(F)F | -26.19% | 6.065% & 15.06%
CN(C)CCN1CCCC12CCN(C(=O)c1ccncc1)CC2.O=C(O)C(F)(F)F.O=C(O)C(F)(F)F | 2.56% | 12.93%
N#Cc1ccccc1N1CCCN(C(=O)NCc2cc[nH]n2)CC1 | 3.262% | 24.37%
[H][C@]12CC[C@]([H])(CN(Cc3ccccn3)C1)N(CC(=O)Nc1ccccc1)C2 | -12.98% | 42.3%
Cc1nc(C2CCCN2Cc2ccn(C)c(=O)c2)no1 (stereo not drawn) | -6.1% | 25.82%
COc1c(C)cnc(CSc2nnc(NC3CC3)s2)c1C | 40.3% | 13.54%
CSc1ncccc1C(=O)N1CCC(c2nc3c(C)cccc3[nH]2)CC1 | -8.724% | 5.615%
O=C(O)C(F)(F)F.O=C(O)C(F)(F)F.[H][C@@]12OCCN(Cc3ccc(F)cc3)[C@@]1([H])CC[C@H]2OCc1ccncc1 | -59.46% | 43.4%
O=C(O)C(F)(F)F.[H][C@]12CC[C@@]3(N=C(CC)N(CC)C3=O)[C@@]1([H])CN(CC1CC1)C2 | -30.34% | 20.39%
COc1cc(CN(C)C(=O)Cc2c(C)nn(C)c2C)ccc1OC(F)F | -25.77% | 39.96%
NC(=O)C(NC(=O)c1cc(Cl)c[nH]1)c1ccccc1 (stereo not drawn) | 3.529% | 24.56%
Cc1cnc(N2CCC3(CC2)CCN(c2cncnc2)C3=O)nc1 | -48.69% | 14.29%
Cc1nc(N2CCCC2)nc2c1CCN(Cc1ccoc1)CC2.O=C(O)C(F)(F)F | -156.6% | 32.06%
CCOc1ccc(Oc2cc(CN)ccn2)cc1 | -31.82% | 14.7%
CC(C(=O)NCC(F)(F)F)N1CCC(N2CCN(C)C2=O)CC1 (stereo not drawn) | - | -8.237%
Cc1nccn1CCC1CCCCN1C(=O)c1ccc2[nH]nnc2c1 (stereo not drawn) | 33.8% | 19.18%
O=C(NCC1CCOC1)c1ccc(-c2ccccc2)[nH]c1=O (stereo not drawn) | -3.821% | -4.604%
O=C(C1CCC1)N1CC[C@H](O)[C@@H]1Cc1cccnc1.O=C(O)C(F)(F)F | -64.42% | 29.85%
O=C(NCCc1cccnc1)NC1CCOC2(CCCCC2)C1 (stereo not drawn) | -30.21% | -14.62%